# Reference: PubChem BioAssay AID2685 (National Center for Advancing Translational Sciences (NCATS), 2010)
# The list shows a part of the results. The main result of the screen is listed elsewhere. These columns were measured beside it and carry no call. Most of these compounds were active or inconclusive in the main read-out, so they are no random draw. The note in brackets gives the kind of curve behind each potency; many fits are weak.
# Experiment: qHTS Assay for Lipid Storage Modulators in Drosophila S3 Cells;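 as to cell number change: cells counted by Cell Tracker Red CMTPX staining in the red channel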
# Conditions: BODIPY lipid droplet fluorescence, 18-24 h; for cell number change: measured here: cell count max response, cells fed with added oleic acid
# Procedure, shortened: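 Drosophila S3 cells got compounds at several concentrations plus oleic acid (400 uM solution). Laser-scanning cytometry with 488 nm excitation read lipid droplets at 500-530 nm and cells at 575-640 nm. Percent activity was relative to 20 uM Triacsin C.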
# [1] = measured here: cell number channel AC50, cells fed with added oleic acid
# [2] = measured here: lipid fluorescence (Fed channel) AC50, cells fed with added oleic acid
smiles,measurement,setting,value
COc1cccc(-n2nnnc2SCC(=O)Nc2ccc(NC(C)=O)cc2)c1,cell number change,,-6.94%
same,AC50,[1],"0.13 µM [rising, partial curve, poor fit]"
same,AC50,[2],"29.1 µM [rising, single point]"
O=C(N/N=C/c1coc2ccc(Cl)cc2c1=O)c1ccncc1,cell number change,,18.1%
CC(=O)Nc1ccc(NC(=O)CN(c2cccc(C(C)=O)c2)S(C)(=O)=O)cc1,cell number change,,-1.58%
same,AC50,[2],"6.51 µM [falling, partial curve, poor fit]"
O=C(CSc1nc2c(c(=O)[nH]1)CCC2)Nc1ccc(F)cc1,cell number change,,-8.97%
CCCC/C(O)=C1\C(=O)CC(C)(C)CC1=Nc1ccc(OC)cc1,cell number change,,-9.05%
same,AC50,[2],"0.58 µM [falling, single point]"
O=C(CNC(=O)C12CC3CC(CC(C3)C1)C2)N/N=C\c1ccccn1,AC50,[2],"0.651 µM [rising, single point]"
O=C(c1ccco1)N1CCN(c2nc(C(F)(F)F)nc3c2nnn3Cc2ccccc2)CC1,cell number change,,-23.5%
same,AC50,[2],"16.4 µM [falling, single point]"
CC1=C(C(=O)Nc2ccccc2C)C(c2ccc(C)o2)C2=C(CCCC2=O)N1 (centres undefined),cell number change,,29.3%
same,AC50,[2],"0.651 µM [rising, partial curve, poor fit]"
O=C(Cc1ccccc1[N+](=O)[O-])NNC(=O)Nc1ccc2c(c1)OCO2,cell number change,,35.6%
same,AC50,[1],"0.92 µM [rising, full curve, poor fit]"
same,AC50,[2],"5.8 µM [rising, full curve]"
O=C1CC2(CCCC2)C(=O)N1CN1CCN(S(=O)(=O)c2ccc(Cl)c(Cl)c2)CC1,cell number change,,32.3%
same,AC50,[1],"32.6 µM [rising, single point]"
same,AC50,[2],"32.6 µM [rising, partial curve, poor fit]"
CC(=O)N1CCN(CC(=O)Nc2ccccc2Sc2ccccc2)CC1,cell number change,,12.9%
same,AC50,[2],"0.146 µM [falling, full curve]"
COc1ccc(CCNC(=O)[C@H](C)N2C(=O)N3CCc4c([nH]c5ccccc45)[C@@]3(C)C2=O)cc1OC,cell number change,,-35%
same,AC50,[1],"0.82 µM [falling, full curve, poor fit]"
same,AC50,[2],"0.259 µM [falling, full curve]"
O=[N+]([O-])c1ccc2nc(NS(=O)(=O)c3ccc(Cl)cc3)sc2c1,cell number change,,7.39%
same,AC50,[2],"29.1 µM [rising, single point]"
O=C(NCc1ccc(F)cc1)c1cccc2c1C(=O)c1ccc(N3CCOCC3)cc1S2(=O)=O,cell number change,,-12.5%
same,AC50,[2],"0.058 µM [rising, full curve, poor fit]"
CCc1ccc(NC(=O)c2cnc3n(c2=O)CCS3)cc1,cell number change,,-1.02%
same,AC50,[1],"0.103 µM [rising, full curve, poor fit]"
CCCCC(CC)CNC(=O)/C=C/c1ccc(F)cc1 (centres undefined),cell number change,,14.9%
same,AC50,[2],"29.1 µM [rising, single point]"
Cc1ccc(S(=O)(=O)N(C)C)cc1NC(=O)CCc1ccccc1,cell number change,,17.4%
same,AC50,[1],"0.0184 µM [rising, full curve, poor fit]"
same,AC50,[2],"0.0517 µM [rising, full curve, poor fit]"
COc1ccc([N+](=O)[O-])cc1NS(=O)(=O)c1ccc(C(=O)N2CCCC2)cc1,cell number change,,3.52%
same,AC50,[2],"6.51 µM [falling, single point]"
COc1ccc(CCNC(=O)c2cc(C)oc2C)cc1,cell number change,,11.4%
same,AC50,[1],"1.16 µM [rising, partial curve]"
COc1ccc(OC)c(N(C)S(=O)(=O)c2cc3c(cc2C)NC(=O)CO3)c1,cell number change,,-2.59%
CCOC(=O)N1CCN(C(=O)CS(=O)(=O)c2cn(Cc3ccc(Cl)cc3)c3ccccc23)CC1,AC50,[2],"6.51 µM [rising, single point]"
O=C(NC1CCCCC1)C(c1ccccc1)N(Cc1cccnc1)C(=O)c1csnn1 (centres undefined),cell number change,,-7.94%
same,AC50,[2],"29.1 µM [rising, single point]"
CCN(CC)c1ccc(/C=N/NC(=S)NCc2ccccc2)cc1,cell number change,,22.1%
same,AC50,[2],"29.1 µM [rising, single point]"
CCC(=O)C(C#N)(c1ccc(OC)c(OC)c1)C(C)C (centres undefined),cell number change,,-20.5%
same,AC50,[2],"1.16 µM [rising, single point]"
Nc1ccccc1C(=O)NCc1ccco1,cell number change,,16.7%
same,AC50,[2],"6.51 µM [falling, single point]"
COc1cc(C2C(C(=O)c3ccco3)=C(O)C(=O)N2c2cc(C)on2)ccc1OCc1ccccc1 (centres undefined),cell number change,,-8.26%
same,AC50,[2],"0.461 µM [falling, single point]"
NC(=O)c1nsc(C(=O)N(CC(=O)NC2CCCCC2)c2cccc(F)c2)c1N,cell number change,,11.1%
CCCOc1c(Br)cc(C(=O)OCC(=O)NC(=O)c2cccn2C)cc1OC,cell number change,,-50.4%
same,AC50,[1],"11.6 µM [falling, partial curve, poor fit]"
same,AC50,[2],"0.082 µM [falling, partial curve, poor fit]"
CCCCCn1c(SCc2cccc(C)c2)nc2c1c(=O)[nH]c(=O)n2C,cell number change,,-34.5%
same,AC50,[1],"29.1 µM [falling, single point]"
same,AC50,[2],"11.6 µM [falling, partial curve, poor fit]"
CCOCCOC(=O)c1[nH]c2c(c1C)C(=O)CC(c1cc(OC)c(OC)c(OC)c1)C2 (centres undefined),cell number change,,-39.5%
same,AC50,[1],"29.1 µM [falling, single point]"
same,AC50,[2],"29.1 µM [falling, single point]"
CN1CCNC(=O)C1CC(=O)O (centres undefined),cell number change,,34.2%
same,AC50,[1],"0.206 µM [rising, full curve, poor fit]"
same,AC50,[2],"25.9 µM [rising, partial curve, poor fit]"
CCc1nnc(NS(=O)(=O)c2ccccc2)s1,cell number change,,-15%
Cc1ccc(S(=O)(=O)N(CC(=O)N(C)C)c2cccc([N+](=O)[O-])c2)cc1,cell number change,,43.7%
same,AC50,[1],"14.6 µM [rising, partial curve]"
same,AC50,[2],"18.4 µM [rising, single point]"
C=CCn1c(=NC(=O)c2sc3ccccc3c2Cl)sc2cc(S(N)(=O)=O)ccc21,cell number change,,-47.5%
same,AC50,[1],"29.1 µM [falling, single point]"
same,AC50,[2],"2.59 µM [rising, partial curve, poor fit]"
CC(C)n1c(-c2ccccc2F)n[nH]c1=S,cell number change,,16.4%
same,AC50,[2],"29.1 µM [rising, single point]"

# A different layout for some results above.
smiles | measurement | setting | value
CC1=C(C(=O)Nc2ccccc2C)C(c2ccc(C)o2)C2=C(CCCC2=O)N1 (centres undefined) | AC50 | [2] | 0.651 µM [rising, partial curve, poor fit]
O=C(Cc1ccccc1[N+](=O)[O-])NNC(=O)Nc1ccc2c(c1)OCO2 | cell number change |  | 35.6%
same | AC50 | [1] | 0.92 µM [rising, full curve, poor fit]
same | AC50 | [2] | 5.8 µM [rising, full curve]
O=C1CC2(CCCC2)C(=O)N1CN1CCN(S(=O)(=O)c2ccc(Cl)c(Cl)c2)CC1 | cell number change |  | 32.3%
